Where two headings read alike, the source gives them in different places.

In the experiment the test system is A431 cells. Description: Fluorescence-based cytotoxicity assay, parental A431 eGFP. The settings on record: Homo sapiens.

For the compound `CC/C(=C(\c1ccccc1)c1ccc(OCCN(C)C)cc1)c1ccccc1` [NSC-180973, Tamoxifen], the 50% inhibitory concentration (IC50) reads like this: (A-431, read-out: IC50 (µM) A431 eGFP, co-culture) 9.76 µM; (A-431, read-out: IC50 (µM) A431 eGFP, monoculture) 11.3 µM.

Source of the values: paper PMC6510822, “Identification of anticancer OATP2B1 substrates by an in vitro triple-fluorescence-based cytotoxicity screen” (Archives of Toxicology, 2019).
